From the supplement of paper PMC3353916 come the findings set out here.

The data set deals with Sindbis virus TE/5'2J-GFP. The experiment in a line: percent infected (GFP+ in RFP+ ISG-expressing cells); higher = more infection (less antiviral activity). To be noted: experiment: primary screen (single well).

Single values of this set are uncertain.

In the case of “MELRSYQWEVIMPALEGKNIIIWLPTGAGKTRAAAYVAKRHLETVDGAKVVVLVNRVHLVTQHGEEFRRMLDGRWTVTTLSGDMGPRAGFGHLARCHDLLICTAELLQMALTSPEEEEHVELTVFSLIVVDECHHTHKDTVYNVIMSQYLELKLQRAQPLPQVLGLTASPGTGGASKLDGAINHVLQLCANLDTWCIMSPQNCCPQLQEHSQQPCKQYNLCHRRSQDPFGDLLKKLMDQIHDHLEMPELSRKFGTQMYEQQVVKLSEAAALAGLQEQRVYALHLRRYNDALLIHDTVRAVDALAALQDFYHREHVTKTQILCAERRLLALFDDRKNELAHLATHGPENPKLEMLEKILQRQFSSSNSPRGIIFTRTRQSAHSLLLWLQQQQGLQTVDIRAQLLIGAGNSSQSTHMTQRDQQEVIQKFQDGTLNLLVATSVAEEGLDIPHCNVVVRYGLLTNEISMVQARGRARADQSVYAFVATEGSRELKRELINEALETLMEQAVAAVQKMDQAEYQAKIRDLQQAALTKRAAQAAQRENQRQQFPVEHVQLLCINCMVAVGHGSDLRKVEGTHHVNVNPNFSNYYNVSRDPVVINKVFKDWKPGGVISCRNCGEVWGLQMIYKSVKLPVLKVRSMLLETPQGRIQAKKWSRVPFSVPDFDFLQHCAENLSDLSLD [DHX58]”, the percent infected is, setting by setting: (BHK/HA-Zeo (control)) 96.4%; (BHK/NZAP-Zeo (ZAP)) 86.2%. As for “MENFILYEEIGRGSKTVVYKGRRKGTINFVAILCTDKCKRPEITNWVRLTREIKHKNIVTFHEWYETSNHLWLVVELCTGGSLKTVIAQDENLPEDVVREFGIDLISGLHHLHKLGILFCDISPRKILLEGPGTLKFSNFCLAKVEGENLEEFFALVAAEEGGGDNGENVLKKSMKSRVKGSPVYTAPEVVRGADFSISSDLWSLGCLLYEMFSGKPPFFSESISELTEKILCEDPLPPIPKDSSRPKASSDFINLLDGLLQRDPQKRLTWTRLLQHSFWKKAFAGADQESSVEDLSLSRNTMECSGPQDSKELLQNSQSRQAKGHKSGQPLGHSFRLENPTEFRPKSTLEGQLNESMFLLSSRPTPRTSTAVEVSPGEDMTHCSPQKTSPLTKITSGHLSQQDLESQMRELIYTDSDLVVTPIIDNPKIMKQPPVKFDAKILHLPTYSVDKLLFLKDQDWNDFLQQVCSQIDSTEKSMGASRAKLNLLCYLCVVAGHQEVATRLLHSPLFQLLIQHLRIAPNWDIRAKVAHVIGLLASHTAELQENTPVVEAIVLLTELIRENFRNSKLKQCLLPTLGELIYLVATQEEKKKNPRECWAVPLAAYTVLMRCLREGEERVVNHMAAKIIENVCTTFSAQSQGFITGEIGPILWYLFRHSTADSLRITAVSALCRITRHSPTAFQNVIEKVGLNSVINSLASAICKVQQYMLTLFAAMLSCGIHLQRLIQEKGFVSTIIRLLDSPSTCIRAKAFLVLLYILIYNREMLLLSCQARLVMYIERDSRKTTPGKEQQSGNEYLSKCLDLLICHIVQELPRILGDILNSLANVSGRKHPSTVQVKQLKLCLPLMPVVLHLVTSQVFRPQVVTEEFLFSYGTILSHIKSVDSGETNIDGAIGLTASEEFIKITLSAFEAIIQYPILLKDYRSTVVDYILPPLVSLVQSQNVEWRLFSLRLLSETTSLLVNQEFGDGKEKASVDSDSNLLALIRDVLLPQYEHILLEPDPVPAYALKLLVAMTEHNPTFTRLVEESKLIPLIFEVTLEHQESILGNTMQSVIALLSNLVACKDSNMELLYEQGLVSHICNLLTETATLCLDVDNKNNNEMAAPLLFSLLDILHSMLTYTSGIVRLALQAQKSGSGEDPQAAEDLLLLNRPLTDLISLLIPLLPNEDPEIFDVSSKCLSILVQLYGGENPDSLSPENVEIFAHLLTSKEDPKEQKLLLRILRRMITSNEKHLESLKNAGSLLRALERLAPGSGSFADSAVAPLALEILQAVGH [ULK4]”, the percent infected by setting is: (BHK/HA-Zeo (control)) 97.5%; (BHK/NZAP-Zeo (ZAP)) 92.5%. “MSIMDHSPTTGVVTVIVILIAIAALGALILGCWCYLRLQRISQSEDEESIVGDGETKEPFLLVQYSAKGPCVERKAKLMTPNGPEVHG [SNN]” displayed a percent infected (BHK/HA-Zeo (control)) of 87.1% and a percent infected (BHK/NZAP-Zeo (ZAP)) of 70.5%.

As to “MEDEQPDSLEGWVPVREGLFAEPERHRLRFLVAWNGAEGKFAVTCHDRTAQQRRLREGARLGPEPEPKPEAAVSPSSWAGLLSAAGLRGAHRQLAALWPPLERCFPRLPPELDVGGGGAWGLGLGLWALLWPTRAGPGEAALQELCGQLERYLGAAADGCGGATVRDALFPAEGGAADCESPREFRERALRARWVEADARLRQVIQGHGKANTMVALMNVYQEEDEAYQELVTVATMFFQYLLQPFRAMREVATLCKLDILKSLDEDDLGPRRVVALEKEAEEWTRRAEEAVVSIQDITVNYFKETVKALAGMQKEMEQDAKRFGQAAWATAIPRLEKLQLMLARETLQLMRAKELCLNHKRAEIQGKMEDLPEQEKNTNVVDELEIQFYEIQLELYEVKFEILKNEEILLTTQLDSLKRLIKEKQDEVVYYDPCENPEELKVIDCVVGLQDDKNLEVKELRRQCQQLESKRGRICAKRASLRSRKDQCKENHRFRLQQAEESIRYSRQHHSIQMKRDKIKEEEQKKKEWINQERQKTLQRLRSFKDKRLAQSVRNTSGSEPVAPNLPSDLSQQMCLPASHAVSVIHPSSRKTRGVPLSEAGNVKSPKCQNCHGNIPVQVFVPVGDQTHSKSSEELSLPPPPPPPPPPPPPPPPPPPPLRALSSSSQAATHQNLGFRAPVKDDQPRPLVCESPAERPRDSLESFSCPGSMDEVLASLRHGRAPLRKVEVPAVRPPHASINEHILAAIRQGVKLKKVHPDLGPNPSSKPTSNRRTSDLERSIKAALQRIKRVSADSEEDSDEQDPGQWDG [WHDC1]”, the percent infected came out at 98.8% (BHK/HA-Zeo (control)) and 96.7% (BHK/NZAP-Zeo (ZAP)).

Where the note is “BHK/HA-Zeo (control)”, “MARPDPSAPPSLLLLLLAQLVGRAAAASKAPVCQEITVPMCRGIGYNLTHMPNQFNHDTQDEAGLEVHQFWPLVEIQCSPDLRFFLCSMYTPICLPDYHKPLPPCRSVCERAKAGCSPLMRQYGFAWPERMSCDRLPVLGRDAEVLCMDYNRSEATTAPPRPFPAKPTLPGPPGAPASGGECPAGGPFVCKCREPFVPILKESHPLYNKVRTGQVPNCAVPCYQPSFSADERTFATFWIGLWSVLCFISTSTTVATFLIDMERFRYPERPIIFLSACYLCVSLGFLVRLVVGHASVACSREHNHIHYETTGPALCTIVFLLVYFFGMASSIWWVILSLTWFLAAGMKWGNEAIAGYAQYFHLAAWLIPSVKSITALALSSVDGDPVAGICYVGNQNLNSLRGFVLGPLVLYLLVGTLFLLAGFVSLFRIRSVIKQGGTKTDKLEKLMIRIGIFTLLYTVPASIVVACYLYEQHYRESWEAALTCACPGHDTGQPRAKPEYWVLMLKYFMCLVVGITSGVWIWSGKTVESWRRFTSRCCCRPRRGHKSGGAMAAGDYPEASAALTGRTGPPGPAATYHKQVSLSHV [C2orf31]” had a percent infected of 92.4%. As to “MDPTAGSKKEPGGGAATEEGVNRIAVPKPPSIEEFSIVKPISRGAFGKVYLGQKGGKLYAVKVVKKADMINKNMTHQVQAERDALALSKSPFIVHLYYSLQSANNVYLVMEYLIGGDVKSLLHIYGYFDEEMAVKYISEVALALDYLHRHGIIHRDLKPDNMLISNEGHIKLTDFGLSKVTLNRDINMMDILTTPSMAKPRQDYSRTPGQVLSLISSLGFNTPIAEKNQDPANILSACLSETSQLSQGLVCPMSVDQKDTTPYSSKLLKSCLETVASNPGMPVKCLTSNLLQSRKRLATSSASSQSHTFISSVESECHSSPKWEKDCQESDEALGPTMMSWNAVEKLCAKSANAIETKGFNKKDLELALSPIHNSSALPTTGRSCVNLAKKCFSGEVSWEAVELDVNNINMDTDTSQLGFHQSNQWAVDSGGISEEHLGKRSLKRNFELVDSSPCKKIIQNKKTCVEYKHNEMTNCYTNQNTGLTVEVQDLKLSVHKSQQNDCANKENIVNSFTDKQQTPEKLPIPMIAKNLMCELDEDCEKNSKRDYLSSSFLCSDDDRASKNISMNSDSSFPGISIMESPLESQPLDSDRSIKESSFEESNIEDPLIVTPDCQEKTSPKGVENPAVQESNQKMLGPPLEVLKTLASKRNAVAFRSFNSHINASNNSEPSRMNMTSLDAMDISCAYSGSYPMAITPTQKRRSCMPHQQTPNQIKSGTPYRTPKSVRRGVAPVDDGRILGTPDYLAPELLLGRAHGPAVDWWALGVCLFEFLTGIPPFNDETPQQVFQNILKRDIPWPEGEEKLSDNAQSAVEILLTIDDTKRAGMKELKRHPLFSDVDWENLQHQTMPFIPQPDDETDTSYFEARNTAQHLTVSGFSL [MASTL]”, the percent infected (BHK/HA-Zeo (control)) stood at 98.7%. In turn, “MSNGYSTDENFRYLISCFRARVKMYIQVEPVLDYLTFLPAEVKEQIQRTVATSGNMQAVELLLSTLEKGVWHLGWTREFVEALRRTGSPLAARYMNPELTDLPSPSFENAHDEYLQLLNLLQPTLVDKLLVRDVLDKCMEEELLTIEDRNRIAAAENNGNESGVRELLKRIVQKENWFSAFLNVLRQTGNNELVQELTGSDCSESNAEIENLSQVDGPQVEEQLLSTTVQPNLEKEVWGMENNSSESSFADSSVVSESDTSLAEGSVSCLDESLGHNSNMGSDSGTMGSDSDEENVAARASPEPELQLRPYQMEVAQPALEGKNIIICLPTGSGKTRVAVYIAKDHLDKKKKASEPGKVIVLVNKVLLVEQLFRKEFQPFLKKWYRVIGLSGDTQLKISFPEVVKSCDIIISTAQILENSLLNLENGEDAGVQLSDFSLIIIDECHHTNKEAVYNNIMRHYLMQKLKNNRLKKENKPVIPLPQILGLTASPGVGGATKQAKAEEHILKLCANLDAFTIKTVKENLDQLKNQIQEPCKKFAIADATREDPFKEKLLEIMTRIQTYCQMSPMSDFGTQPYEQWAIQMEKKAAKEGNRKERVCAEHLRKYNEALQINDTIRMIDAYTHLETFYNEEKDKKFAVIEDDSDEGGDDEYCDGDEDEDDLKKPLKLDETDRFLMTLFFENNKMLKRLAENPEYENEKLTKLRNTIMEQYTRTEESARGIIFTKTRQSAYALSQWITENEKFAEVGVKAHHLIGAGHSSEFKPMTQNEQKEVISKFRTGKINLLIATTVAEEGLDIKECNIVIRYGLVTNEIAMVQARGRARADESTYVLVAHSGSGVIEHETVNDFREKMMYKAIHCVQNMKPEEYAHKILELQMQSIMEKKMKTKRNIAKHYKNNPSLITFLCKNCSVLACSGEDIHVIEKMHHVNMTPEFKELYIVRENKALQKKCADYQINGEIICKCGQAWGTMMVHKGLDLPCLKIRNFVVVFKNNSTKKQYKKWVELPITFPNLDYSECCLFSDED [IFIH1]” yielded a percent infected (BHK/HA-Zeo (control)) of 96% and a percent infected (BHK/NZAP-Zeo (ZAP)) of 65.7%. “MKRRTDPECTAPIKKQKKRVAELALSLSSTSDDEPPSSVSHGAKASTTSLSGSDSETEGKQHSSDSFDDAFKADSLVEGTSSRYSMYNSVSQKLMAKMGFREGEGLGKYSQGRKDIVEASSQKGRRGLGLTLRGFDQELNVDWRDEPEPSACEQVSWFPECTTEIPDTQEMSDWMVVGKRKMIIEDETEFCGEELLHSVLQCKSVFDVLDGEEMRRARTRANPYEMIRGVFFLNRAAMKMANMDFVFDRMFTNPRDSYGKPLVKDREAELLYFADVCAGPGGFSEYVLWRKKWHAKGFGMTLKGPNDFKLEDFYSASSELFEPYYGEGGIDGDGDITRPENISAFRNFVLDNTDRKGVHFLMADGGFSVEGQENLQEILSKQLLLCQFLMALSIVRTGGHFICKTFDLFTPFSVGLVYLLYCCFERVCLFKPITSRPANSERYVVCKGLKVGIDDVRDYLFAVNIKLNQLRNTDSDVNLVVPLEVIKGDHEFTDYMIRSNESHCSLQIKALAKIHAFVQDTTLSEPRQAEIRKECLRLWGIPDQARVAPSSSDPKSKFFELIQGTEIDIFSYKPTLLTSKTLEKIRPVFDYRCMVSGSEQKFLIGLGKSQIYTWDGRQSDRWIKLDLKTELPRDTLLSVEIVHELKGEGKAQRKISAIHILDVLVLNGTDVREQHFNQRIQLAEKFVKAVSKPSRPDMNPIRVKEVYRLEEMEKIFVRLEMKIIKGSSGTPKLSYTGRDDRHFVPMGLYIVRTVNEPWTMGFSKSFKKKFFYNKKTKDSTFDLPADSIAPFHICYYGRLFWEWGDGIRVHDSQKPQDQDKLSKEDVLSFIQMHRA [KIAA0082]”: the percent infected (BHK/NZAP-Zeo (ZAP)) amounted to 93%.
